The values that follow come from PubChem BioAssay AID1508600 (Functional Genomics Laboratory (NCATS/FGL), 2020).

Screen size: about 53,000 sequences; about 3,700 (7%) were called active.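 How the source made its calls: active means gene knockdowns whose robust z-score for IL-1 alpha signal is at least 2 or at most -2, so actives lie on both sides; inactive means the rest.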 This is one part of the list.

A short description of this assay: Components of the Cytosolic LPS Sensing Pathway: Gene Identification via Genome-wide siRNA Screen.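 Further: robust z of the log signal after scaling to non-targeting control siRNA wells of the plate.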 The following applies: RAW264.7 macrophages, IL-1a HTRF, actives lie on both sides, screened at 100 nM (by protocol), cells primed 5 h with Pam3CSK4 first. The method, boiled down:
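Read-out: IL-1a HTRF on supernatant, divided by plate negative-control median ×100, log-transformed and converted to robust z-score. Cells were RAW264.7 given 100 nM siRNA, Pam3CSK4-primed 5 hours, then LipidA-transfected 24 hour.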
In general terms: TR-FRET usually uses a lanthanide donor and a delayed reading to cut background.
Take CCUAUGCGAUUAUCGCUGCTT against Wnt7a: the z-score was inactive: 1.19. With GGCCCUGCCAGGUUUUUAGTT against Phactr1 the figure was inactive: -0.476; with GCAAUGCCUCAUUUCCUUGTT against S100pbp, inactive: 0.215; with GGUCAUUUUAUCUAAUGUCTT against Ctse, inactive: -0.107.

In the case of GCAUCGUGUGUGUAGAUAATT against Rnf187, the z-score is inactive: -0.283. Then “GGAACAACACCUCUUCCUATT against A830005F24Rik”, with inactive: 0.95; and GCGGAUUAACCUCUGUGGCTT against Igfl3, with inactive: 0.244. Then “GGUCAACUCUAAGAUGCUGTT against 9930012K11Rik”, with inactive: 1.35. Consider GCGCGACAAAUCGUAGGCUTT against Mamstr, for which the z-score is active: -2.13. Then GGGUUUCUGGAAUACAUUCTT against Mfng, with inactive: 0.219. Then GGAAAUUGCUCAGGAGUUUTT against Anxa5, with inactive: -1.26. Then GAUAUCACGGUCAUCUGUCTT against Pde6h, with inactive: -0.19; and CCAAUUGUGAGAAGAGUGUTT against Cog7, with inactive: -0.46. Consider CCGUUUCAUUUCAGGGAGGTT against Phf1, for which the z-score was inactive: 0.307. Then GCCCAGGUCUUGUUGACAATT against Ppm1e, with inactive: -0.585. With GGCUAUUCAGUAUGCCAGATT against Atm the figure was inactive: -0.266; with GGUGGACCAUUUCAGGUUCTT against B4galt7, inactive: 0.689; with GGACCUCAUGGAGCUCCAATT against Tnnt3, inactive: 0.924. Take GCUGGUGAUGACGUGUAUCTT against Slc32a1: the z-score was inactive: 0.357. With GGAAGUAAAAACAUACCUUTT against Chac2, the z-score was active: 2.02. As for GGCCAGUUUUCAGGACAGUTT against Fcgr1, the z-score is inactive: 0.802. For CCAUUGUGUGGUACUUAAATT against Mrm3, the z-score is inactive: 0.448. Then GGAUACUCCUCUGAGUAGUTT against Mtmr11, with inactive: -0.469; and GGCCUAUAAUUUCUUUACGTT against Cc2d2a, with inactive: -0.823; and GGGCAAAGGAAAUGGAAUCTT against Eif5, with active: 2.33. With GGACACAGUAGAGCGGAUUTT against Rell2 the figure was inactive: 0.996; with GGUCCUAUGCAGAUACCAATT against Gstk1, inactive: 0.913; with GGCACCAUCGAGCUGUUAUTT against Osgep, inactive: 1.63. For the sequence CCCUUUCUUUCAUGAGCCGTT against Dguok, the z-score is inactive: -0.836.

On to GGCAGAAAGCAAAAUGUUUTT against Gata3, for which the z-score was active: -4.28.

Turning to GGGAUCAAGUUAAAUAGACTT against Snhg16, the z-score is inactive: -0.184. Then GGUCAAGUAACAUGGUUUGTT against Rundc3b, with inactive: 0.282.

Consider CGACCAGAUGAACUGGUGUTT against Smg9, for which the z-score is inactive: 0.929. Then “GCUUUAUUUUUUCCACCUUTT against Olfr106-ps”, with inactive: 0.333; and GGCCUUGCUUCAUAUAAGGTT against Kat6b, with inactive: 0.0845. In the case of GGUACGACAAAGAAAAACCTT against Rnmt, the z-score was inactive: 1. On to GGCAGCAAGAAAAAGAUUCTT against Spi1, for which the z-score was inactive: -0.763. For GGAAAGUGUGCUUCCAAUUTT against Olfr1138, the z-score was inactive: -1.02. In the case of GGCAUAUCAGACACCUCUUTT against Olfr697, the z-score was inactive: 0.736. With GCUAAACGAGAGAAAAAGATT against Arhgef10 the figure was inactive: 1.54.

As to GGGUGUACUGAACUUUGUGTT against Kat2a, the z-score was inactive: 0.37. On to CGACAGAAACUAGAAACCCTT against Chmp2a, for which the z-score was inactive: -1.38. With GGAUGAUUUGGCCAACACCTT against Atraid the figure was inactive: -0.115; with GGAGCUCCAUGACAUGUUUTT against Stx3, inactive: -0.37; with GGCAAAACAACUUUAUUCCTT against Ucp2, inactive: 1.14. Then GGUGGUGGUUGGUAAUGAUTT against Kif4, with inactive: -0.747; and GGACACCAUUGGCUCCUUATT against Tmub1, with inactive: 1.63; and GGACAAAGAUGAAUAUGUGTT against Spag6l, with inactive: -0.34. For GGACUUACUCCACAGCCUATT against Tbp, the z-score was inactive: -1.73. For GGUAACUGCUUGCUACAGGTT against Npm3, the z-score was inactive: -0.25.

Consider CCAAAAUAAGUGUGGUCAATT against Vstm2l, for which the z-score is inactive: -0.623. As for GGAGGGACUUACCACAAGGTT against Timeless, the z-score was inactive: 0.282. Consider GCACCGUGACUCAGAUAGATT against Slco1c1, for which the z-score is inactive: -0.191. On to CCAACGGCAUAAAUCCUGATT against Trappc9, for which the z-score is inactive: -1.95. Then GGUUAUAGCUUCAAUAGCUTT against Bphl, with inactive: -0.61. Turning to GGUAGAAACGGCUCUAUUATT against Atp6v1b2, the z-score was inactive: 0.249. For GCAACUAUGAACAAGAAUCTT against Grm3, the z-score is inactive: -0.0322. GGAUUCCUGCUUUCUUUGCTT against Rnf26: the z-score was inactive: -0.605. Then GGAGCAGAUGGUCCUGUUATT against Eda, with inactive: 0.503. Regarding CCGGUUAUGUUAAAGGCAATT against Tlk1, the z-score is inactive: 0.0946.

Take GCAAAGUACGCCAAGAUGGTT against Cplx1: the z-score was inactive: -0.29.

Take GGUAAUCAAGACCCACAAATT against Shank3: the z-score was inactive: 0.536.

Regarding GGCAUCUGAAUUCCCUUCUTT against Id2, the z-score is inactive: 1.94. As for GGUGUUCAGACUACCCUCUTT against Serpina3m, the z-score was inactive: -1.16. Turning to CCCUAAAAGACAAAGUGCUTT against Cmtm3, the z-score was inactive: 0.877. With CGUCAUCUUAUCAUGUAUUTT against Camk2d the figure was inactive: -0.266; with CCCUUAUCCUCACGUCAGATT against Spic, inactive: -1.24; with GCUGAAAAUAUACCAUUCATT against Colec10, inactive: -0.798. With GGGCAAGAAGGUAGACAUUTT against Hoga1 the figure was inactive: 0.278. With CCUUAUCAAAAAGCUCUCATT against Lats2 the figure was inactive: -0.677; with GGGAAGAUGGAAGACUACGTT against Ramp2, inactive: 0.75; with GGUUCAAUAAGCACUUGGATT against Atn1, inactive: -0.239. For CGGGCCUAAACCUCUUAAUTT against Rest, the z-score is inactive: 0.616.

Take GGGUCGUAAUGAGUUCUGGTT against Med1: the z-score was inactive: 0.83.

GCAUCAUCCAUACGUCUUATT against Ovgp1: the z-score is inactive: -0.0273. For the sequence CCACCAUGACUGCAAAUGUTT against Olfr1469, the z-score was inactive: -0.817.

With CCUUAUCACAUGUAUCCUCTT against Slc9a9, the z-score is inactive: -1.06. As for GGAGCGAUUUGCUGGUGUGTT against Rps16, the z-score is inactive: 1.19. Then GGGACUGGCAGAUCUUAUCTT against Gtpbp3, with inactive: 0.817; and CCAAAACCUGAACUCACUATT against Fzd5, with inactive: -0.795. Take GGAUUUAAGUGCCCGGUAUTT against Znrf2: the z-score is inactive: 1.34. Take GGAAAGCUCUCAAUACCUGTT against Olfr633: the z-score was inactive: -0.688. In the case of GGUCCACUGGAAAUGCUUUTT against F2rl3, the z-score is inactive: -0.285. With GGAUCAGAUGACACAGACUTT against Stk19 the figure was inactive: -1.48; with GGCAAAAGAACAAGAAACUTT against Orc1, active: -2.09; with GUUCUAUGGUAGACAUUAUTT against Gm5414, active: -2.35. With GGACUUUUGGCACUCUUAUTT against Snx10 the figure was inactive: 0.127. Take GCGAUUUUACGGAUCCGGUTT against Olfr1420: the z-score was inactive: 1.13. Take UCUUUGUGAUUUCGAAGCCTT against Slc17a9: the z-score is active: 2.31.

Take GCUAAAAACGACCACAACCTT against Mvd: the z-score was inactive: -0.459. Then GCCACAUCCUAUGUGAUGATT against Olfr1349, with inactive: -0.647; and GCCUUUCAUGCUCCAACAUTT against Olfr995, with inactive: 0.242. With GGUUUGGAUUGGGUAAAGGTT against Apex1 the figure was inactive: -0.416; with GGCGAGAAGUGUAACAUUCTT against Fjx1, inactive: 1.89. With GGACCAUGUAUUUUUCUCUTT against B3gnt5 the figure was inactive: -0.239. For the sequence GGAUAAGACAAGAAGAGAUTT against Dnah14, the z-score was inactive: 1.89. Then GGAACGAUAAGCAACUUUGTT against Cwc22, with inactive: -0.7. Then CCGUCUAUUAGUGAAGAUGTT against Pex1, with inactive: 0.0157; and GGAAGGUGAGAGCAUUAUGTT against Lrba, with inactive: -1.3. Then GGAGUUGAGCAAGACCAAGTT against Ccdc102a, with inactive: 0.628; and GCUUAAGAAUCGAAAAGAGTT against Krcc1, with inactive: 0.813; and GGUUGAUGAAAUUAGAGAGTT against Esco1, with inactive: 0.549. As to GGAGAAGGGAACCAAUAAGTT against Vgll1, the z-score is inactive: -1.42. Consider CCUCAUUUCAAGACUGUUATT against Aurka, for which the z-score is inactive: -0.831.

As to GGUGAGCAAAGAGACAUAUTT against Hivep3, the z-score was inactive: 0.422.

With GGAGACUACCAGAAGGCCUTT against Stip1, the z-score is inactive: -0.425.

Regarding UGCAUGGACUUACGAAAGATT against Tas2r115, the z-score is inactive: 0.454.
